Data from PMC6115016.
These are yes or no findings as the source states them, for the method shown. Binding seen in cells or lysates may run through a third protein. Some binding calls cover weakened binding; strength is not graded here.

By UniProt entry, the sequences of proteins in these tests, tags left out.
UniProt Q14160: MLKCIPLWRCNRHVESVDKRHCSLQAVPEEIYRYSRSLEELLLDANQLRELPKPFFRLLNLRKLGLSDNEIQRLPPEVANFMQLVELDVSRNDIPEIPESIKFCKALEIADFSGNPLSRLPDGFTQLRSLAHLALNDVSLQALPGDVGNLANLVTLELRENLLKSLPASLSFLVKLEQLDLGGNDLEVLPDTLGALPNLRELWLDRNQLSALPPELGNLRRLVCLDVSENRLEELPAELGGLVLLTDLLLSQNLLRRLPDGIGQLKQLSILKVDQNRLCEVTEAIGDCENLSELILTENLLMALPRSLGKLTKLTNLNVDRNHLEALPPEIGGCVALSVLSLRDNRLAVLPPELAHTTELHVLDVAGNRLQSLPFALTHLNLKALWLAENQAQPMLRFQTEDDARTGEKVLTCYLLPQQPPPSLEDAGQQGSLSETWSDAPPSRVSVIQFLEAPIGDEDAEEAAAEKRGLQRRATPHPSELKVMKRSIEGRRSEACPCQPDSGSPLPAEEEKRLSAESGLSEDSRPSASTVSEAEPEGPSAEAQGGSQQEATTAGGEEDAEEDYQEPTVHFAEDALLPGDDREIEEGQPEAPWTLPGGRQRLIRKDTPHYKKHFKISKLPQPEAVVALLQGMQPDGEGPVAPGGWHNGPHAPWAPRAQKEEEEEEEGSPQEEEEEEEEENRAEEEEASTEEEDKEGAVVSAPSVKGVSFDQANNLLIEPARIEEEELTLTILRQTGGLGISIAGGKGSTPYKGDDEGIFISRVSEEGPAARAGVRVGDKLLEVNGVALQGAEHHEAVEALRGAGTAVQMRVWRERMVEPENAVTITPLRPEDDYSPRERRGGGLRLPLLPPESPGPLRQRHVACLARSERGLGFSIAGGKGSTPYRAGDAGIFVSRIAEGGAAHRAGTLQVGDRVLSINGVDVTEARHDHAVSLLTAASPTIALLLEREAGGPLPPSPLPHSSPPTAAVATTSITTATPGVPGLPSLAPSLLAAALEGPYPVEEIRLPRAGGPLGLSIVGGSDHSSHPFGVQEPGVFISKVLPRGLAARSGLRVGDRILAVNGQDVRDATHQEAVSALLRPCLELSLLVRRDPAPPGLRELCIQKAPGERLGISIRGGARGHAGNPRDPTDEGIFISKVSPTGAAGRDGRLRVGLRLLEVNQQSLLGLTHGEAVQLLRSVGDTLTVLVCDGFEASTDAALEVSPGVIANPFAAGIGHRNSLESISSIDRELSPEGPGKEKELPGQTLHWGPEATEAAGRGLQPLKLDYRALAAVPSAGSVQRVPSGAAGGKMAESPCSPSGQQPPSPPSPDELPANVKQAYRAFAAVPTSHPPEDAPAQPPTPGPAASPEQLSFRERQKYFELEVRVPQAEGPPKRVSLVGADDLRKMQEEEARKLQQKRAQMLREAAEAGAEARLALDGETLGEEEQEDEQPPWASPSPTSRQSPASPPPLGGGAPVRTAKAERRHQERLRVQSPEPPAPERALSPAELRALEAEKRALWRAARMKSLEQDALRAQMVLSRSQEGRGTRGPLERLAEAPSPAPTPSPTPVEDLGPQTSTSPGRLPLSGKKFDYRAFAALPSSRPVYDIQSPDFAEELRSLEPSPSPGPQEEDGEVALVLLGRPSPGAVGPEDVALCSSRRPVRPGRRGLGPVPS
UniProt Q14980: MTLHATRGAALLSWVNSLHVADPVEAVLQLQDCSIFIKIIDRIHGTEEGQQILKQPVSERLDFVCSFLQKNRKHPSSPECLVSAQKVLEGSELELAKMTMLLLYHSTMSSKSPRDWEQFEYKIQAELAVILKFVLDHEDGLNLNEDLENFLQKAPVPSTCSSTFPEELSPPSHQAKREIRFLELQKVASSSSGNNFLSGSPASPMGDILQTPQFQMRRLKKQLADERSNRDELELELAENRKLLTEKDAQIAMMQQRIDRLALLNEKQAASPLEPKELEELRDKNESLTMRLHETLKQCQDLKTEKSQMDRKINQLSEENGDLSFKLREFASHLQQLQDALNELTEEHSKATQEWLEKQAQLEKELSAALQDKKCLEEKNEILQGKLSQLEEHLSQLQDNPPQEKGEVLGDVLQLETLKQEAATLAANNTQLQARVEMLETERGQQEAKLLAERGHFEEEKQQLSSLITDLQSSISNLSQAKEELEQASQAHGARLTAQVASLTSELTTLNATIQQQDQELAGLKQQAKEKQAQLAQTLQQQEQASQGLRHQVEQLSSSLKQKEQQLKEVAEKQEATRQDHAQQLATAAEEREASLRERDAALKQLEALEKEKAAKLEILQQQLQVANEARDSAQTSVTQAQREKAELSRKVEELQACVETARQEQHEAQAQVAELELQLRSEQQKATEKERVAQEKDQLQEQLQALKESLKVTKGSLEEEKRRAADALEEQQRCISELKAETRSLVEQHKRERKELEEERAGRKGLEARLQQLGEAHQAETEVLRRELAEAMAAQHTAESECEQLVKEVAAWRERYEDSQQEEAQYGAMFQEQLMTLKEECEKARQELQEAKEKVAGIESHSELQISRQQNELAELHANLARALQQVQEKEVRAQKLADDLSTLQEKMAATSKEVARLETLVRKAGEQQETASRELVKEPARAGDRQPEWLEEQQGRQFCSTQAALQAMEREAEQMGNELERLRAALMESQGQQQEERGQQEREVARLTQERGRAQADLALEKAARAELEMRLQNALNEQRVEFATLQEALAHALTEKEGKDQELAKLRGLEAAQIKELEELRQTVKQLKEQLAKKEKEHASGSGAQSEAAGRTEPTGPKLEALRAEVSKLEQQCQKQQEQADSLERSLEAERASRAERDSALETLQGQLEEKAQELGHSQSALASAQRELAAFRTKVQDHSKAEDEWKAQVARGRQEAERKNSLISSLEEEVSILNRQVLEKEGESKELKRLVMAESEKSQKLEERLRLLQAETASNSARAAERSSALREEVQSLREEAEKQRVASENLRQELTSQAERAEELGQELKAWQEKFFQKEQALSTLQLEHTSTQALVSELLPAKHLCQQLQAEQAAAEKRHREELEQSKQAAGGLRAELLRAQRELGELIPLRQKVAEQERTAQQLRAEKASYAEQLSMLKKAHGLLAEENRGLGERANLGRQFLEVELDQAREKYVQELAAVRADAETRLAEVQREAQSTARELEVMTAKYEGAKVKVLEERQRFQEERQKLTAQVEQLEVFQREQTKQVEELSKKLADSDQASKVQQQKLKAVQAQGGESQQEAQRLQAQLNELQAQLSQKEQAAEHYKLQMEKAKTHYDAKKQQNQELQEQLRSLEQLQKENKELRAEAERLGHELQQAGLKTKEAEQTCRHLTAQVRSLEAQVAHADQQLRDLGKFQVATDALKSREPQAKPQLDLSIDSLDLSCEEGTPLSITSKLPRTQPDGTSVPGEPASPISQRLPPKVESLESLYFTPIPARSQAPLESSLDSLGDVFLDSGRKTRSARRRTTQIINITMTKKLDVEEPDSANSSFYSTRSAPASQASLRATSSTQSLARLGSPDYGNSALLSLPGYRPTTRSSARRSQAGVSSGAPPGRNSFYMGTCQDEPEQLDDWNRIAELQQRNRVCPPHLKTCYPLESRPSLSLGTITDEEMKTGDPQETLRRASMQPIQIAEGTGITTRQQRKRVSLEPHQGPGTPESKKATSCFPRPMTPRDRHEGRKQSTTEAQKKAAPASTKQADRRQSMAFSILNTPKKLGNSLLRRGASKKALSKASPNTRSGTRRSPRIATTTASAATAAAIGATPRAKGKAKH

T1: leucine-glycine-asparagine repeat protein (LGN) (human (endogenous in RWPE-1)) (UniProt P81274)
T1 sequence: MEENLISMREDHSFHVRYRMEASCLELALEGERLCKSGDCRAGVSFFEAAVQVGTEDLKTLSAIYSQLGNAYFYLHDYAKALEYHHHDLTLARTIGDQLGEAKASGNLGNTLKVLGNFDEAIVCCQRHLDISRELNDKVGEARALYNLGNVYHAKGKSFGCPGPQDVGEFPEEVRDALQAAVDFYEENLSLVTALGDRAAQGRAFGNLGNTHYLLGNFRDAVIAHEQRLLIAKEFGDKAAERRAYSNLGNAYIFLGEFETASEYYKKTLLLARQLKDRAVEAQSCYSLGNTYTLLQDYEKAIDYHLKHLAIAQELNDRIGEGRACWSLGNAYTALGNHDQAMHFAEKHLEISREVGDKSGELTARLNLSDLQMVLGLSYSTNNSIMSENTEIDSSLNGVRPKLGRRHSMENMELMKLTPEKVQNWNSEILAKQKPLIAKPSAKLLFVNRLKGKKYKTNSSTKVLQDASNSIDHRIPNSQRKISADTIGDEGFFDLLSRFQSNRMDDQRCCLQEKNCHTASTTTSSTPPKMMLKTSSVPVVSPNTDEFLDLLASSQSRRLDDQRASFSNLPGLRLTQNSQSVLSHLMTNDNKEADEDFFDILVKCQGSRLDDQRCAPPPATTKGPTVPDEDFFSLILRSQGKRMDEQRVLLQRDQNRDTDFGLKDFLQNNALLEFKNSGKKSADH


Key:
[1] = target: T1, leucine-glycine-asparagine repeat protein (LGN) (human (endogenous in RWPE-1)); experiment: co-IP; endogenous proteins in RWPE-1 cell lysate (50mM Tris-HCl, 150mM NaCl, 1mM EDTA, 0.25% TritonX-100, pH 7.4), 1 ug primary antibody 6 h at 4°C, Protein G-Agarose, immunoblot; also compared in E-cadherin knockdown and SCRIB knockdown cells
[2] = target: Scribble (SCRIB) (human (endogenous in RWPE-1)) (UniProt Q14160); experiment: as above

binding [1]	binding [2]	Molecule
binds	–	nuclear and mitotic apparatus (NUMA) (from UniProt Q14980 1-2115)
–	binds	leucine-glycine-asparagine repeat protein (LGN) (protein, UniProt P81274 1-684) MEENLISMREDHSFHVRYRMEASCLELALEGERLCKSGDCRAGVSFFEAAVQVGTEDLKTLSAIYSQLGNAYFYLHDYAKALEYHHHDLTLARTIGDQLGEAKASGNLGNTLKVLGNFDEAIVCCQRHLDISRELNDKVGEARALYNLGNVYHAKGKSFGCPGPQDVGEFPEEVRDALQAAVDFYEENLSLVTALGDRAAQGRAFGNLGNTHYLLGNFRDAVIAHEQRLLIAKEFGDKAAERRAYSNLGNAYIFLGEFETASEYYKKTLLLARQLKDRAVEAQSCYSLGNTYTLLQDYEKAIDYHLKHLAIAQELNDRIGEGRACWSLGNAYTALGNHDQAMHFAEKHLEISREVGDKSGELTARLNLSDLQMVLGLSYSTNNSIMSENTEIDSSLNGVRPKLGRRHSMENMELMKLTPEKVQNWNSEILAKQKPLIAKPSAKLLFVNRLKGKKYKTNSSTKVLQDASNSIDHRIPNSQRKISADTIGDEGFFDLLSRFQSNRMDDQRCCLQEKNCHTASTTTSSTPPKMMLKTSSVPVVSPNTDEFLDLLASSQSRRLDDQRASFSNLPGLRLTQNSQSVLSHLMTNDNKEADEDFFDILVKCQGSRLDDQRCAPPPATTKGPTVPDEDFFSLILRSQGKRMDEQRVLLQRDQNRDTDFGLKDFLQNNALLEFKNSGKKSADH
